Laboratory results as given in article PMC12107181 (2025).
These are yes or no findings as the source states them, for the method shown. Binding seen in cells or lysates may run through a third protein. Some entries that bind do so weakly or less than the wild type. Where a sequence is shown, tags or fusion partners need not be part of it.

T1: nLUC-SPA1 (Arabidopsis) (UniProt Q9SYX2)
T1 sequence: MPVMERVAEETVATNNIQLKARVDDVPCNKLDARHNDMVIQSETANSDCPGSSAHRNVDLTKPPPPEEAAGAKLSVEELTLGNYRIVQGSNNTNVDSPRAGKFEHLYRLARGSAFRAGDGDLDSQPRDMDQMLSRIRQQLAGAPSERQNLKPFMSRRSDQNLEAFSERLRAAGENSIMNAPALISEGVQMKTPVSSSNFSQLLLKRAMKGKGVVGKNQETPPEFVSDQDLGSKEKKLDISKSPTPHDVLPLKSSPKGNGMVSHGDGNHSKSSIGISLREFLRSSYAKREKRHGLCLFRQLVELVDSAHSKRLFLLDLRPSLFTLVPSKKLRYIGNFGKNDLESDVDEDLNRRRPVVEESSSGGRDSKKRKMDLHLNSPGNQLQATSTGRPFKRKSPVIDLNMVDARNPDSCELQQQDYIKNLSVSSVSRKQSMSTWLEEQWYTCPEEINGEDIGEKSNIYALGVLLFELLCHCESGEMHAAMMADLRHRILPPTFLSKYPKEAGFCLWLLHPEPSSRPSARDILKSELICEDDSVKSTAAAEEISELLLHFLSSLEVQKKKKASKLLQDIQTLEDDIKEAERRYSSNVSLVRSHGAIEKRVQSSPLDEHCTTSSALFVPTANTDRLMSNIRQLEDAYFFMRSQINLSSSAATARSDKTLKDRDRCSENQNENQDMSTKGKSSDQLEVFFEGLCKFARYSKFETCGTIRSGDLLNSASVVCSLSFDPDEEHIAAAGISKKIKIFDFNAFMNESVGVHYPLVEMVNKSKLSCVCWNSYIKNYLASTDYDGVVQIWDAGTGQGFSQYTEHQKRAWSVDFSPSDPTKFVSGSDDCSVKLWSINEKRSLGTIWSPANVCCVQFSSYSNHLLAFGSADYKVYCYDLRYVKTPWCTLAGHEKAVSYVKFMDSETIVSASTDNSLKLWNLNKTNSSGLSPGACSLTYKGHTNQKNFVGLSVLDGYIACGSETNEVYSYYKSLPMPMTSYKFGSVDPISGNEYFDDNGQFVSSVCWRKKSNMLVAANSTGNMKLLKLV

T2: nLUC-COP1 (Arabidopsis) (UniProt P43254)
T2 sequence: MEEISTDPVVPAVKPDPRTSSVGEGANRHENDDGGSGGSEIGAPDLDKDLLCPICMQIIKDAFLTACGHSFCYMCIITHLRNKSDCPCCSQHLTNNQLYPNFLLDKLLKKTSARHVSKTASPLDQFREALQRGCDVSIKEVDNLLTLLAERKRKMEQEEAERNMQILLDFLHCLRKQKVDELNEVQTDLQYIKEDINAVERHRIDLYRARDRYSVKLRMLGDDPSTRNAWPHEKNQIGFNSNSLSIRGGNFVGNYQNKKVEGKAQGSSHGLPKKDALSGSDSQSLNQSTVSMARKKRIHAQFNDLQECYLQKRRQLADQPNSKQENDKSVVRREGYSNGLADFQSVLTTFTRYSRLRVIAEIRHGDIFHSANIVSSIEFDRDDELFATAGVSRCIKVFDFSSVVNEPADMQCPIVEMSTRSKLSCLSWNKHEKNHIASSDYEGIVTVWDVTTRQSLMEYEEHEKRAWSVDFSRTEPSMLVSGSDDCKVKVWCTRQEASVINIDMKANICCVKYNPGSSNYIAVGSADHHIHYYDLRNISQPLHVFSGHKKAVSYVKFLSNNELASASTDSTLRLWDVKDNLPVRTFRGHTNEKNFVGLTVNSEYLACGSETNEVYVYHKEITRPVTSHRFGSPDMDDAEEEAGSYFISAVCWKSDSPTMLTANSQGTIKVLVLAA

T3: YFP-SPA1 (Arabidopsis) (UniProt Q9SYX2)
T3 sequence: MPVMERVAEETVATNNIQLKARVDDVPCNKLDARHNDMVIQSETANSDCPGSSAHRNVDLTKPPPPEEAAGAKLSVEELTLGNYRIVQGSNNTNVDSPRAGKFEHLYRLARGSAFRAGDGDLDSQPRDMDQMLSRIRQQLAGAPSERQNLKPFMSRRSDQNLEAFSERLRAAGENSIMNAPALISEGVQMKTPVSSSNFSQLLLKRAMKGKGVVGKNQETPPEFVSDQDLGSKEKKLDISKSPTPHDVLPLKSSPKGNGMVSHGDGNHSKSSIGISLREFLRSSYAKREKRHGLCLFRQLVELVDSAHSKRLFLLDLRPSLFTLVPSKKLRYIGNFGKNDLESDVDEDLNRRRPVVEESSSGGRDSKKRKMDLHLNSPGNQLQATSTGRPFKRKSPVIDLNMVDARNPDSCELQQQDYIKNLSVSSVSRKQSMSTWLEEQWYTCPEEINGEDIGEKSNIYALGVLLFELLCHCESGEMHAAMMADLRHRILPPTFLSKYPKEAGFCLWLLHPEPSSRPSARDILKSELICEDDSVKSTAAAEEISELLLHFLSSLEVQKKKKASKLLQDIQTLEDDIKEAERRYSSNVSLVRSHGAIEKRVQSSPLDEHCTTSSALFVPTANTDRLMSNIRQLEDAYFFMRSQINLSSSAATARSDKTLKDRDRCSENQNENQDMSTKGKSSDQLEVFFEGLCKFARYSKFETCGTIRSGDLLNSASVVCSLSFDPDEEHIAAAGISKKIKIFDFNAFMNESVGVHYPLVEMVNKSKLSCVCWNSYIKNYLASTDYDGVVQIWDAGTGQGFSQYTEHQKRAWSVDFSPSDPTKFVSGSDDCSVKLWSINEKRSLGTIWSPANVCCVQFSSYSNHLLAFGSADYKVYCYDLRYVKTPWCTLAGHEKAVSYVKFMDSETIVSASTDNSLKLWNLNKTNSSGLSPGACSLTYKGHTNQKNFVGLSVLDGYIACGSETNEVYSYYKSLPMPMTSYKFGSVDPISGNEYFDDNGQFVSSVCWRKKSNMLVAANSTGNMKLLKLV

T4: YFP-COP1 (Arabidopsis) (UniProt P43254)
T4 sequence: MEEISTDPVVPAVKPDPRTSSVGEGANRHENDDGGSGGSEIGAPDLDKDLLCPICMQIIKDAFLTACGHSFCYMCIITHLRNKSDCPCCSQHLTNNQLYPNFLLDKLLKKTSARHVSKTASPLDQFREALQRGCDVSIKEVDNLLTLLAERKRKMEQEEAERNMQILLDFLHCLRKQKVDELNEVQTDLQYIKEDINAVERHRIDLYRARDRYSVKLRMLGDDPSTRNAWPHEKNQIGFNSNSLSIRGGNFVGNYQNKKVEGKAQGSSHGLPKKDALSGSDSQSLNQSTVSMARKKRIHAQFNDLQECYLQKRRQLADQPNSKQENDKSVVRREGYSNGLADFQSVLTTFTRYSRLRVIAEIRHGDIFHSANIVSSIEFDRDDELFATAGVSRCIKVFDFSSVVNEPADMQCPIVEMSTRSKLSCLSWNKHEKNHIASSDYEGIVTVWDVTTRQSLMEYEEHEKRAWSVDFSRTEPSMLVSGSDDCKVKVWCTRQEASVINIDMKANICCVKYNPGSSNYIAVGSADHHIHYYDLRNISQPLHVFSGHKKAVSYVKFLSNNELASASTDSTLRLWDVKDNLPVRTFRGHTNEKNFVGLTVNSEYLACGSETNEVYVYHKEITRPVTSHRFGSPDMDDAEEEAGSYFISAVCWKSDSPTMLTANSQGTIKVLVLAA


Key:
nLUC-SPA1 (Arabidopsis) = biological target: T1, nLUC-SPA1 (Arabidopsis); test: split reporter; luciferase complementation imaging (LCI) in transfected tobacco leaves; also with coexpressed YFP-NLS-SPA1 or YFP-NLS-GUS
nLUC-COP1 (Arabidopsis) = biological target: T2, nLUC-COP1 (Arabidopsis); test: as above
YFP-SPA1 (Arabidopsis) = biological target: T3, YFP-SPA1 (Arabidopsis); test: FRET or BRET; FRET-FLIM in leek epidermal cells transfected by particle bombardment; lifetime of the donor YFP against mCherry alone as control
YFP-COP1 (Arabidopsis) = biological target: T4, YFP-COP1 (Arabidopsis); test: as above

Row | Binder | binding (nLUC-SPA1 (Arabidopsis)) | binding (nLUC-COP1 (Arabidopsis)) | binding (YFP-SPA1 (Arabidopsis)) | binding (YFP-COP1 (Arabidopsis))
1 | TCP3-cLUC (protein, UniProt Q9MAH8 1-391) MAPDNDHFLDSPSPPLLEMRHHQSATENGGGCGEIVEVQGGHIVRSTGRKDRHSKVCTAKGPRDRRVRLSAPTAIQFYDVQDRLGFDRPSKAVDWLITKAKSAIDDLAQLPPWNPADTLRQHAAAAANAKPRKTKTLISPPPPQPEETEHHRIGEEEDNESSFLPASMDSDSIADTIKSFFPVASTQQSYHHQPPSRGNTQNQDLLRLSLQSFQNGPPFPNQTEPALFSGQSNNQLAFDSSTASWEQSHQSPEFGKIQRLVSWNNVGAAESAGSTGGFVFASPSSLHPVYSQSQLLSQRGPLQSINTPMIRAWFDPHHHHHHHQQSMTTDDLHHHHPYHIPPGIHQSAIPGIAFASSGEFSGFRIPARFQGEQEEHGGDNKPSSASSDSRH | binds | binds | – | –
2 | mCherry-TCP3 (protein, UniProt Q9MAH8 1-391) MAPDNDHFLDSPSPPLLEMRHHQSATENGGGCGEIVEVQGGHIVRSTGRKDRHSKVCTAKGPRDRRVRLSAPTAIQFYDVQDRLGFDRPSKAVDWLITKAKSAIDDLAQLPPWNPADTLRQHAAAAANAKPRKTKTLISPPPPQPEETEHHRIGEEEDNESSFLPASMDSDSIADTIKSFFPVASTQQSYHHQPPSRGNTQNQDLLRLSLQSFQNGPPFPNQTEPALFSGQSNNQLAFDSSTASWEQSHQSPEFGKIQRLVSWNNVGAAESAGSTGGFVFASPSSLHPVYSQSQLLSQRGPLQSINTPMIRAWFDPHHHHHHHQQSMTTDDLHHHHPYHIPPGIHQSAIPGIAFASSGEFSGFRIPARFQGEQEEHGGDNKPSSASSDSRH | – | – | binds | binds
